Taken from: PubChem BioAssay AID1259254 (NCATS, 2017)

- Screen: 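Genome-wide screen for genes that prevent DNA re-replication in cancer cells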 (primary screen)
- System: human HCT116 colorectal cancer cells
- Reagents: single siRNA against human genes
- Duration: 3 days
- Measurement: 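Imaged Hoechst DNA stain sorts each cell into a cycle phase by DNA amount; per plate, G2 fraction set to 0% for non-targeting and 100% for GMNN siRNA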
- Direction: G2 robust z-score and G2 cells, % of GMNN control: higher = more G2 cells, more excess DNA replication
- Rule for the call: 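Active siRNAs have a G2 robust z of 5 or more median absolute deviations over the median, which in these data means about 38% or higher of GMNN control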
Shown is a random part of about 59,000 reagents. In the full data, about 1,550 (2.6%) are marked active. 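G2 share is only a proxy for re-replication; each gene was hit by three separate siRNAs, and active genes were retested.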 Further read-outs or replicates are left out here. Not given: the amount of reagent.

gene symbol	PubChem SID	G2 robust z-score	G2 cells, % of GMNN control	call
RPS15AP34 (GeneID 390735)	SID160725270	1.35	12.4	inactive
RPS15AP34 (GeneID 390735)	SID160766563	7.52	55.9	active
RPS15AP34 (GeneID 390735)	SID160766564	0.141	3.96	inactive
ZNF678 (GeneID 339500)	SID160764252	0.936	9.55	inactive
ZNF678 (GeneID 339500)	SID160764253	-0.293	0.904	inactive
ZNF678 (GeneID 339500)	SID160764254	-0.381	0.289	inactive
RNASE2CP (GeneID 643332)	SID160768845	-0.561	-0.98	inactive
RNASE2CP (GeneID 643332)	SID160768846	-0.66	-1.68	inactive
RNASE2CP (GeneID 643332)	SID160768847	2.39	19.8	inactive
NPBWR1 (GeneID 2831)	SID160723797	0.173	4.18	inactive
NPBWR1 (GeneID 2831)	SID160730996	-1.1	-4.78	inactive
NPBWR1 (GeneID 2831)	SID160773112	-0.422	-0.00448	inactive
LGI3 (GeneID 203190)	SID160761110	-0.597	-1.23	inactive
LGI3 (GeneID 203190)	SID160761111	-0.0351	2.72	inactive
LGI3 (GeneID 203190)	SID160761112	1.01	10.1	inactive
SENP3 (GeneID 26168)	SID160737740	1.12	10.8	inactive
SENP3 (GeneID 26168)	SID160737741	4.58	35.2	inactive
SENP3 (GeneID 26168)	SID160737743	-0.361	0.425	inactive
MIX23 (GeneID 131076)	SID160757033	0.577	7.03	inactive
MIX23 (GeneID 131076)	SID160757034	1.14	11	inactive
MIX23 (GeneID 131076)	SID160757035	-0.392	0.209	inactive
ARHGAP12 (GeneID 94134)	SID160754637	3.14	25	inactive
ARHGAP12 (GeneID 94134)	SID160754638	0.726	8.08	inactive
ARHGAP12 (GeneID 94134)	SID160754640	-0.733	-2.19	inactive
DFFB (GeneID 1677)	SID160730695	-0.368	0.376	inactive
DFFB (GeneID 1677)	SID160753920	0.00365	2.99	inactive
DFFB (GeneID 1677)	SID160753931	2.19	18.4	inactive
HNRNPLL (GeneID 92906)	SID160754390	-1.02	-4.17	inactive
HNRNPLL (GeneID 92906)	SID160754391	0.753	8.27	inactive
HNRNPLL (GeneID 92906)	SID160754392	0.915	9.41	inactive
SLCO4C1 (GeneID 353189)	SID160765165	0.335	5.32	inactive
SLCO4C1 (GeneID 353189)	SID160765166	-0.592	-1.2	inactive
SLCO4C1 (GeneID 353189)	SID160765167	-0.614	-1.35	inactive
KRTAP6-2 (GeneID 337967)	SID160725055	0.259	4.79	inactive
KRTAP6-2 (GeneID 337967)	SID160725056	-0.146	1.94	inactive
KRTAP6-2 (GeneID 337967)	SID160725057	-0.0886	2.34	inactive
UBE2I (GeneID 7329)	SID160718541	6.31	47.4	active
UBE2I (GeneID 7329)	SID160718542	-0.0836	2.38	inactive
UBE2I (GeneID 7329)	SID160731866	2.35	19.5	inactive
IFIT1B (GeneID 439996)	SID160767659	2.11	17.8	inactive
IFIT1B (GeneID 439996)	SID160767660	-0.379	0.304	inactive
IFIT1B (GeneID 439996)	SID160767661	5.79	43.7	active
EMP1 (GeneID 2012)	SID160732665	2.02	17.2	inactive
EMP1 (GeneID 2012)	SID160760100	0.219	4.51	inactive
EMP1 (GeneID 2012)	SID160760111	0.334	5.32	inactive
TSR3 (GeneID 115939)	SID160724741	-0.92	-3.51	inactive
TSR3 (GeneID 115939)	SID160755295	-0.474	-0.369	inactive
TSR3 (GeneID 115939)	SID160755296	3.51	27.7	inactive
RADX (GeneID 55086)	SID160742904	0.443	6.08	inactive
RADX (GeneID 55086)	SID160742905	0.354	5.45	inactive
RADX (GeneID 55086)	SID160742907	-0.83	-2.87	inactive
PCDHGA12 (GeneID 26025)	SID160737477	3.6	28.3	inactive
PCDHGA12 (GeneID 26025)	SID160737478	-1.02	-4.2	inactive
PCDHGA12 (GeneID 26025)	SID160737480	-0.215	1.45	inactive
RPLP1 (GeneID 6176)	SID160716113	1.36	12.5	inactive
RPLP1 (GeneID 6176)	SID160724039	0.378	5.63	inactive
RPLP1 (GeneID 6176)	SID160724040	0.588	7.11	inactive
PLXNC1 (GeneID 10154)	SID160726197	0.173	4.18	inactive
PLXNC1 (GeneID 10154)	SID160726201	-0.288	0.938	inactive
PLXNC1 (GeneID 10154)	SID160726207	-0.503	-0.569	inactive
TVP23C (GeneID 201158)	SID160724928	0.199	4.37	inactive
TVP23C (GeneID 201158)	SID160732660	-0.0812	2.4	inactive
TVP23C (GeneID 201158)	SID160760932	1.19	11.3	inactive
SPDYE4 (GeneID 388333)	SID160733204	-0.378	0.307	inactive
SPDYE4 (GeneID 388333)	SID160765823	1.05	10.4	inactive
SPDYE4 (GeneID 388333)	SID160765824	-0.228	1.36	inactive
TMPRSS2 (GeneID 7113)	SID160718175	1.85	16	inactive
TMPRSS2 (GeneID 7113)	SID160718176	-1.1	-4.76	inactive
TMPRSS2 (GeneID 7113)	SID160718177	-0.493	-0.504	inactive
RNF187 (GeneID 149603)	SID160732562	-0.323	0.697	inactive
RNF187 (GeneID 149603)	SID160758848	1.09	10.7	inactive
RNF187 (GeneID 149603)	SID160758850	-0.428	-0.0473	inactive
CSTF1 (GeneID 1477)	SID160749948	-0.57	-1.04	inactive
CSTF1 (GeneID 1477)	SID160749959	0.181	4.24	inactive
CSTF1 (GeneID 1477)	SID160749970	-1.01	-4.14	inactive
ALG1L8P (GeneID 645015)	SID160769418	1.7	14.9	inactive
ALG1L8P (GeneID 645015)	SID160769419	-0.848	-3	inactive
ALG1L8P (GeneID 645015)	SID160769420	0.182	4.25	inactive
MT1CP (GeneID 441771)	SID160725448	0.731	8.11	inactive
MT1CP (GeneID 441771)	SID160725449	1.37	12.6	inactive
MT1CP (GeneID 441771)	SID160725450	-0.765	-2.41	inactive
INKA1 (GeneID 389119)	SID160725220	0.289	5	inactive
INKA1 (GeneID 389119)	SID160725222	-0.992	-4.01	inactive
INKA1 (GeneID 389119)	SID160725223	0.473	6.3	inactive
CLYBL (GeneID 171425)	SID160732634	1.41	12.9	inactive
CLYBL (GeneID 171425)	SID160760515	0.648	7.53	inactive
CLYBL (GeneID 171425)	SID160760516	0.511	6.56	inactive

Reformatted: entries from further up.
| gene symbol | PubChem SID | G2 robust z-score | G2 cells, % of GMNN control | call |
| --- | --- | --- | --- | --- |
| UBE2I (GeneID 7329) | SID160731866 | 2.35 | 19.5 | inactive |
| IFIT1B (GeneID 439996) | SID160767659 | 2.11 | 17.8 | inactive |
| IFIT1B (GeneID 439996) | SID160767660 | -0.379 | 0.304 | inactive |
| IFIT1B (GeneID 439996) | SID160767661 | 5.79 | 43.7 | active |
| EMP1 (GeneID 2012) | SID160732665 | 2.02 | 17.2 | inactive |
| EMP1 (GeneID 2012) | SID160760100 | 0.219 | 4.51 | inactive |
| EMP1 (GeneID 2012) | SID160760111 | 0.334 | 5.32 | inactive |
| TSR3 (GeneID 115939) | SID160724741 | -0.92 | -3.51 | inactive |
| TSR3 (GeneID 115939) | SID160755295 | -0.474 | -0.369 | inactive |
| TSR3 (GeneID 115939) | SID160755296 | 3.51 | 27.7 | inactive |
| RADX (GeneID 55086) | SID160742904 | 0.443 | 6.08 | inactive |
| RADX (GeneID 55086) | SID160742905 | 0.354 | 5.45 | inactive |
